Laboratory results as given in PMC4847768.
Where two headings read alike, the source gives them in different places. No constants are given. Whether binding was seen depends on the method and setting. Binding seen in cells or lysates may run through a third protein. These calls come from enrichment with a bait or labelling near it, and not all partners need be listed. Where a sequence is shown, tags or fusion partners need not be part of it.

Protein sequences, listed by entry. Tags and fused reporters are not part of them. Lines headed by an entry give the natural chain unless they say otherwise; changes in a name come on top. Residues count along the entry.
UniProt P11087: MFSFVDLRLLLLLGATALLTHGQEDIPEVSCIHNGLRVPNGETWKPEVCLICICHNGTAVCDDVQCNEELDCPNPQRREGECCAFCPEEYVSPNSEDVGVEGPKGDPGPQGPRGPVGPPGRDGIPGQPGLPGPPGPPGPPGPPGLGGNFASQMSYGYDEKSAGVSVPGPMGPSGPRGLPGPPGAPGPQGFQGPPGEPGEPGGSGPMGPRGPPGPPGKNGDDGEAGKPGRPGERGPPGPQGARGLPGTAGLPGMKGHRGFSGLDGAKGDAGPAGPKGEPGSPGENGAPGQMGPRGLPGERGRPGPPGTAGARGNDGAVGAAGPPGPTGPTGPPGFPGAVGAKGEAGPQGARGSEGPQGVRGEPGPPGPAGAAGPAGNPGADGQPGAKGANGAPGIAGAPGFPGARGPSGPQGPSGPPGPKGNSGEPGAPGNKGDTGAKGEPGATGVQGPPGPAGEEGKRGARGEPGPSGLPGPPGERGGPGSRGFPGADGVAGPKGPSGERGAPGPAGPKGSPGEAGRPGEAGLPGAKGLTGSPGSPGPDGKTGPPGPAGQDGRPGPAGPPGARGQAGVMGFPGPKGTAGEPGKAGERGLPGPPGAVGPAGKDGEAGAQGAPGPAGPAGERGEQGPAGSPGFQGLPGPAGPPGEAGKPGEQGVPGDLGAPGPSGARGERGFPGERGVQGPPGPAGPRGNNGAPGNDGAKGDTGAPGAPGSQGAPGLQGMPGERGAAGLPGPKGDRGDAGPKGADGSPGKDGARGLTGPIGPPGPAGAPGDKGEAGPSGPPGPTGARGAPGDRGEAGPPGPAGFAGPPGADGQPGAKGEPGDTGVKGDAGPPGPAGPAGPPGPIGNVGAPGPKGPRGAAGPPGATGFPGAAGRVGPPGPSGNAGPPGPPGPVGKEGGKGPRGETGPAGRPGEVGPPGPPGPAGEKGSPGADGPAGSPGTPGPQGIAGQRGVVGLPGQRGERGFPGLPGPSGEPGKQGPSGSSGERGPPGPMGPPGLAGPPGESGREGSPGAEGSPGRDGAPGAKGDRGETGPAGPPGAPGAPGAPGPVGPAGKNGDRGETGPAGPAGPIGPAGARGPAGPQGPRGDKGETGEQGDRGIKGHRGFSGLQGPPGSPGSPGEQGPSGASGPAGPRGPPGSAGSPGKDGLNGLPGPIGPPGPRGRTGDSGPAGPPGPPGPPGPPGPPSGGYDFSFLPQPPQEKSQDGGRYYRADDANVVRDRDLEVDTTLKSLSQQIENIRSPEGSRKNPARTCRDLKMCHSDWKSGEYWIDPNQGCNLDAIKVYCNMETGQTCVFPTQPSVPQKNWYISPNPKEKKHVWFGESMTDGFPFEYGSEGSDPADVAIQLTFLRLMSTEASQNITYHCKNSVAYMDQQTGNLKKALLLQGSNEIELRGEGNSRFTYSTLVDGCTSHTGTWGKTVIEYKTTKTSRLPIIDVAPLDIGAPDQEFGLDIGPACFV
UniProt O88207, residues 37-1838: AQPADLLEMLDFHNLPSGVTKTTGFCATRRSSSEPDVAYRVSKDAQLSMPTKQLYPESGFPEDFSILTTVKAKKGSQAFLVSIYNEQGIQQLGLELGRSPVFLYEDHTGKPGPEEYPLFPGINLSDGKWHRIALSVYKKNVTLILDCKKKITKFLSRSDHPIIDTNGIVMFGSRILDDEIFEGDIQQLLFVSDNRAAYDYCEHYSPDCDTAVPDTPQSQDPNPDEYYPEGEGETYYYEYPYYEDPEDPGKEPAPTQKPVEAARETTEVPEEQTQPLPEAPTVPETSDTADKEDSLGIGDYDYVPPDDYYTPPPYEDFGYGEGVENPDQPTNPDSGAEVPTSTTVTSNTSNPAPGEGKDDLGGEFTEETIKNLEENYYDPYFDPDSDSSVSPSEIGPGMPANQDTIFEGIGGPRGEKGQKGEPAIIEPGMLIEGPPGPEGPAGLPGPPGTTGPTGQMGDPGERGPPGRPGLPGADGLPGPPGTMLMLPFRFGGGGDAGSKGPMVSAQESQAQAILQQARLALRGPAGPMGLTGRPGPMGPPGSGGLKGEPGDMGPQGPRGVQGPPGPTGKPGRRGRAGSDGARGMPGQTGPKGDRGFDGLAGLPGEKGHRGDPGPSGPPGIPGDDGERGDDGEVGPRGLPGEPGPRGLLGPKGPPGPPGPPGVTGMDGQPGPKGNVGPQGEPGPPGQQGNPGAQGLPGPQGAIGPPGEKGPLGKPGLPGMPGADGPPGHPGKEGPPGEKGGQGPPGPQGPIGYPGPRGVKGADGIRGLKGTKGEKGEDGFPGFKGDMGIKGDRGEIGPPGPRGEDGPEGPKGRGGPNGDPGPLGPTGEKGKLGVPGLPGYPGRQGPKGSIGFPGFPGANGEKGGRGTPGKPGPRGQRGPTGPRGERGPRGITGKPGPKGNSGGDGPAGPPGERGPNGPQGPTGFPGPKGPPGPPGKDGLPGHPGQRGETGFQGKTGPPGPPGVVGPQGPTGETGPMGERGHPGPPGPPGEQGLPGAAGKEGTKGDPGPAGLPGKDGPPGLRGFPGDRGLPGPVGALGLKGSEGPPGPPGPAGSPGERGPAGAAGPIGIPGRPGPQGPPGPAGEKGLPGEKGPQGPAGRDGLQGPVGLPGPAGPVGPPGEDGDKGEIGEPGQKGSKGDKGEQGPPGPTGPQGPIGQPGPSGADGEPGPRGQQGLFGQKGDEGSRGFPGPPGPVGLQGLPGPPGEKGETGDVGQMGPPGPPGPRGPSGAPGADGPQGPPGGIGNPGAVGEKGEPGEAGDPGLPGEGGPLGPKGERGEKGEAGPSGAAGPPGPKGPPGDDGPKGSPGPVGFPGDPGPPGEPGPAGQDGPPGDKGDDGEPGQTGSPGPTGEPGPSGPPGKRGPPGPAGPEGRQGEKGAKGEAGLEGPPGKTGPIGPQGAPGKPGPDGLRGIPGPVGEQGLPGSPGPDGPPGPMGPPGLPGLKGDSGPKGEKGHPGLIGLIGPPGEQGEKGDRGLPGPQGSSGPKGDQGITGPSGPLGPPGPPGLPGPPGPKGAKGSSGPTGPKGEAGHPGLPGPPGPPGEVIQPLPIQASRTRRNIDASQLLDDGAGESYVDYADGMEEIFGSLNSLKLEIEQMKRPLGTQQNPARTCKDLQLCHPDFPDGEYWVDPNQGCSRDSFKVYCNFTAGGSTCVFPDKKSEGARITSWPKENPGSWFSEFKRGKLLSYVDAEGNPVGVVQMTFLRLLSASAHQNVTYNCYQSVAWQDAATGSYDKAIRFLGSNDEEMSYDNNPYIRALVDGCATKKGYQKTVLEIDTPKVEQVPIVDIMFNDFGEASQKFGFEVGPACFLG
UniProt Q01149, residues 86-1125: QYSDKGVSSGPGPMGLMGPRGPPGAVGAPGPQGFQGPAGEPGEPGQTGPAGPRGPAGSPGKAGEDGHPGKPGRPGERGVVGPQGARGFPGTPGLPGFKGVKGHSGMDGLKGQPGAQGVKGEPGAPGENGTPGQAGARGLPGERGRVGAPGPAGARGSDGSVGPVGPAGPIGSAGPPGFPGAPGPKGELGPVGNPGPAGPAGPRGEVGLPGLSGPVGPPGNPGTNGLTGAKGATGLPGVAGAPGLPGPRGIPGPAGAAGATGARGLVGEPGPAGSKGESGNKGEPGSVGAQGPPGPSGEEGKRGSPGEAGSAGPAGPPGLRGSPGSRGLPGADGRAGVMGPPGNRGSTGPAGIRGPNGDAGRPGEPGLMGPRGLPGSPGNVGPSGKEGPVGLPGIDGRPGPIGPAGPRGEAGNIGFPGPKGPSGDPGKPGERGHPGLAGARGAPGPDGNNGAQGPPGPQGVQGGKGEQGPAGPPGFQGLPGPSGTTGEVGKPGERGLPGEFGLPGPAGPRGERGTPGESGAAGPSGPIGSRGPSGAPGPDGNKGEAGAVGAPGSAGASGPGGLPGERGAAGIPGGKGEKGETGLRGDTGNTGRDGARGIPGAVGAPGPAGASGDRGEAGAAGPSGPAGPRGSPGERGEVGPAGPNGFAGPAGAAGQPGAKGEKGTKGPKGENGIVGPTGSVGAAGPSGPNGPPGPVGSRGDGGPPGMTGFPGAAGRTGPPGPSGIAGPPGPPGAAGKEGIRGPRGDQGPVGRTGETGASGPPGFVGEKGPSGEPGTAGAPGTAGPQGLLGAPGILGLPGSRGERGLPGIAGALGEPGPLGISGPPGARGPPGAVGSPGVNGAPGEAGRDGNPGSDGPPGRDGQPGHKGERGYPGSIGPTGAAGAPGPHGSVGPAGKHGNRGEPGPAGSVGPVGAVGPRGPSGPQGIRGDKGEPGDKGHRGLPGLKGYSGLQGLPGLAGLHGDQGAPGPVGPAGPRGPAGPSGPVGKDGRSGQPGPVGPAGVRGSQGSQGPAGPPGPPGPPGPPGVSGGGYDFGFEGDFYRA
UniProt Q64739, residues 28-1736: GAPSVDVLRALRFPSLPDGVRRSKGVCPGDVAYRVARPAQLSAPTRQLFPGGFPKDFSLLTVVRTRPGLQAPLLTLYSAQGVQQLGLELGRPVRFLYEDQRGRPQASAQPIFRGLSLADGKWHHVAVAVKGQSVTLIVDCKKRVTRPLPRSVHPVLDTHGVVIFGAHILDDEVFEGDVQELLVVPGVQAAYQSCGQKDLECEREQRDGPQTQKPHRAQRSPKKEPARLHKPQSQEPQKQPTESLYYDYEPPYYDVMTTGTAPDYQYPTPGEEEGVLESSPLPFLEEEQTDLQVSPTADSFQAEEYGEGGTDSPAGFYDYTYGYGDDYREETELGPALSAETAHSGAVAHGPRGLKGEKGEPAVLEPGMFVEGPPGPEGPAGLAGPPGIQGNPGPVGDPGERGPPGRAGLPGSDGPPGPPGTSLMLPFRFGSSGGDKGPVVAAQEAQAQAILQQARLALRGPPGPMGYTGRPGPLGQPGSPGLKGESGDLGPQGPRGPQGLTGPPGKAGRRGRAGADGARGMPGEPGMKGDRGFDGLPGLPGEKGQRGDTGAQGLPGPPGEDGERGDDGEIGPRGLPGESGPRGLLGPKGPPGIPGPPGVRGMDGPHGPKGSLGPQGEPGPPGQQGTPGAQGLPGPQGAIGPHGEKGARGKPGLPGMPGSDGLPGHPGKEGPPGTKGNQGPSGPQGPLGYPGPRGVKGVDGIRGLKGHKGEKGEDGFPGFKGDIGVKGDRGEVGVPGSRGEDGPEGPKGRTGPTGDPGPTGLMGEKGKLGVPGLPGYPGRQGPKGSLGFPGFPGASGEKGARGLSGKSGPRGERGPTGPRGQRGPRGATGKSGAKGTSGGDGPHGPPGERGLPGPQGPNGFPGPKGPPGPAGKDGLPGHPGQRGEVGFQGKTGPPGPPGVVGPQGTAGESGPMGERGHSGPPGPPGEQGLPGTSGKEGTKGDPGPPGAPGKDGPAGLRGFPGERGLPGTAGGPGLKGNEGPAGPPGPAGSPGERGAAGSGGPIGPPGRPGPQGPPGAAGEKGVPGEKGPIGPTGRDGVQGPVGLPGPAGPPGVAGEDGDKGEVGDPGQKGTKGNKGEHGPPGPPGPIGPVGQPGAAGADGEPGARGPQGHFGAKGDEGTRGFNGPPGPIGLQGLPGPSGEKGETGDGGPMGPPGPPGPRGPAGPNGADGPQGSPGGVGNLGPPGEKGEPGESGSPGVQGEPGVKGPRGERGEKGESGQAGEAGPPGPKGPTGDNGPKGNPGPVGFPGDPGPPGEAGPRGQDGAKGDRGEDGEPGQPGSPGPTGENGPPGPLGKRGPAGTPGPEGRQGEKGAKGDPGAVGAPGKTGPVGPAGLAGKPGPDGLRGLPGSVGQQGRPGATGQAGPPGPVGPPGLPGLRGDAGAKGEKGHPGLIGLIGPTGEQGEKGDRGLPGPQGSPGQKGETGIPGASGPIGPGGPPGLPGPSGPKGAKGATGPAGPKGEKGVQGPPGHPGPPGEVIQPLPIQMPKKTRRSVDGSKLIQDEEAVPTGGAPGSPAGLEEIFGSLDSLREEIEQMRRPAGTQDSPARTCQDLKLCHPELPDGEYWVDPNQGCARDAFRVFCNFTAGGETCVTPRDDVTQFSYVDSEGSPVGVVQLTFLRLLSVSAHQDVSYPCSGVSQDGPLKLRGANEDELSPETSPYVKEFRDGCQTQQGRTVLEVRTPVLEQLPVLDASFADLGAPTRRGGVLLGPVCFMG

What was measured:
[1] = target: T1, SC65-Flag (Synaptonemal Complex 65, P3H4) (mouse) (UniProt Q8K2B0); test: affinity purification with mass spectrometry; 714 cells transiently transfected with SC65-Flag or empty vector, lysed 24 h later in 1 mM EDTA, 0.5% Triton X-100, PBS; anti-Flag antibody on Epoxy Dynabeads, 4 h at 4°C; eluted with 0.5N ammonium hydroxide; gel bands analysed by LC-MS/MS; fold change >1.5 over empty vector counted as enriched
T1 sequence: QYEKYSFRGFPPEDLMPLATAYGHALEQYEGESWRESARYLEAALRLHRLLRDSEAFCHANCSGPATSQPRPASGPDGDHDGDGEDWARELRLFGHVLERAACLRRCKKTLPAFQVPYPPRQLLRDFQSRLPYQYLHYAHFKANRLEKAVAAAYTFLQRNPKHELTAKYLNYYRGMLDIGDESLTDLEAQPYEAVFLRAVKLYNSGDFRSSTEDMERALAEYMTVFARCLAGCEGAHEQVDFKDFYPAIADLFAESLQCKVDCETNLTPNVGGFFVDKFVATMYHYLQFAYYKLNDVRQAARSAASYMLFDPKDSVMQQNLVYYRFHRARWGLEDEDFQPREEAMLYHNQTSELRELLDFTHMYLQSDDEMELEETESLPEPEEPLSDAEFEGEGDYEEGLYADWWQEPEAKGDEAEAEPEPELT

[2] = target: T1, SC65-Flag (Synaptonemal Complex 65, P3H4) (mouse); test: as above; remark: listed apart in the source

collagen α1(I) chain (from UniProt P11087)
binding [1]: binds

collagen α1(V) chain (from UniProt O88207 37-1838)
binding [1]: binds

collagen α1(XI) chain (from UniProt Q61245)
binding [1]: binds

collagen α2(I) chain (from UniProt Q01149 86-1125)
binding [1]: binds

collagen α2(V) chain (from UniProt Q3U962 27-1227)
binding [1]: binds

collagen α2(XI) chain (from UniProt Q64739 28-1736)
binding [1]: binds

B1: lysyl-hydroxylase 1 (LH1), endogenous (enzyme, UniProt Q9R0E2 19-728)
chain: KDDAKLEDNLLVLTVATKETEGFRRFKRSAQFFNYKIQSLGLGEDWSVDGGPAAAGGGQKVRLLKKALEKHADKEDLVILFVDSYDVVFASGPRELLKKFQQAKSQVVFSAEEHIYPDRRLEAKYPTVPDGKRFLGSGGFIGYAPSLSKLVAEWEGQDSDSDQLFYTKIFLNPEKREQINISLDHRCRIFQNLDGALDEVVLKFEMGHVRARNLAYDTLPVVVHGNGPTKLQLNYLGNYIPRFWTFETGCTVCDEGLRSLKGIGDEALPTVLVGVFIEQPTPFLSLFFLRLLRLRYPQKQMRLFIHNQERHHKLQVEQFLAEHGSEYQSVKLVGPEVRMANADARNMGADLCRQDQTCTYYFSVDADVALTEPNSLRLLIEQNKNVIAPLMTRHGRLWSNFWGGLSADGYYARSEDYVDIVQGRRVGVWNVPYISNIYLIKGSALRAELQNVDLFHYSKLDSDMSFCANVRQQEVFMFLTNRHTFGHLLSLDNYQTTHLHNDLWEVFSNPEDWKEKYIHENYTKALAGKLVETPCPDVYWFPIFTEAACDELVEEMEHYGQWSLGDNKDNRIQGGYENVPTIDIHMNQITFEREWHKFLVEYIAPMTEKLYPGYYTRAQFDLAFVVRYKPDEQPSLMPHHDASTFTVNIALNRVGEDYEGGGCRFLRYNCSVRAPRKGWALLHPGRLTHYHEGLPTTKGTRYIAVSFVDP
binding [2]: binds
